Measured values: US12729225B2, “Non-canonical SWI/SNF complex and uses thereof” (Dana-Farber Cancer Institute, Inc., priority 2018, dated 2026)

System: mSWI/SNF complexes
Assay: mSWI/SNF complex purification with HA-tagged baits and mass spectrometry (peptide counts)
Parameters: species or system human
[1] = 293_HA-BRD7: HA-BRD7 bait purification, total peptide count per co-purified protein
[2] = 293_HA-BRD7: HA-BRD7 bait purification, unique peptide count per co-purified protein
[3] = 293_HA-DPF2 purification, total peptides
[4] = 293_HA-DPF2 purification, unique peptides
[5] = total peptide count of the co-purified protein, 293_HA-BRD9 (HA-BRD9 bait, mass spectrometry), Table 3b
[6] = unique peptide count of the co-purified protein, 293_HA-BRD9 (HA-BRD9 bait, mass spectrometry), Table 3b

B1: HNRNPM (protein, UniProt P52272 2-730, looked up)
Heterogeneous nuclear …: AAGVEAAAEVAATEIKMEEESGAPGVPSGNGAPGPKGEGERPAQNEKRKEKNIKRGGNRFEPYANPTKRYRAFITNIPFDVKWQSLKDLVKEKVGEVTYVELLMDAEGKSRGCAVVEFKMEESMKKAAEVLNKHSLSGRPLKVKEDPDGEHARRAMQKVMATTGGMGMGPGGPGMITIPPSILNNPNIPNEIIHALQAGRLGSTVFVANLDYKVGWKKLKEVFSMAGVVVRADILEDKDGKSRGIGTVTFEQSIEAVQAISMFNGQLLFDRPMHVKMDERALPKGDFFPPERPQQLPHGLGGIGMGLGPGGQPIDANHLNKGIGMGNIGPAGMGMEGIGFGINKMGGMEGPFGGGMENMGRFGSGMNMGRINEILSNALKRGEIIAKQGGGGGGGSVPGIERMGPGIDRLGGAGMERMGAGLGHGMDRVGSEIERMGLVMDRMGSVERMGSGIERMGPLGLDHMASSIERMGQTMERIGSGVERMGAGMGFGLERMAAPIDRVGQTIERMGSGVERMGPAIERMGLSMERMVPAGMGAGLERMGPVMDRMATGLERMGANNLERMGLERMGANSLERMGLERMGANSLERMGPAMGPALGAGIERMGLAMGGGGGASFDRAIEMERGNFGGSFAGSFGGAGGHAPGVARKACQIFVRNLPFDFTWKMLKDKFNECGHVLYADIKMENGKSKGCGVVKFESPEVAERACRMMNGMKLSGREIDVRIDRNA
B1 was tested, and the Total [1] was 25, the Unique [2] was 25 and the Total [3] was 2. For the same molecule, the Unique [4] was 2, the Total [5] was 19 and the Unique [6] was 14.

B2: NSF (protein, UniProt P46459 1-744, looked up)
Vesicle-fusing ATPase: MAGRSMQAARCPTDELSLTNCAVVNEKDFQSGQHVIVRTSPNHRYTFTLKTHPSVVPGSIAFSLPQRKWAGLSIGQEIEVSLYTFDKAKQCIGTMTIEIDFLQKKSIDSNPYDTDKMAAEFIQQFNNQAFSVGQQLVFSFNEKLFGLLVKDIEAMDPSILKGEPATGKRQKIEVGLVVGNSQVAFEKAENSSLNLIGKAKTKENRQSIINPDWNFEKMGIGGLDKEFSDIFRRAFASRVFPPEIVEQMGCKHVKGILLYGPPGCGKTLLARQIGKMLNAREPKVVNGPEILNKYVGESEANIRKLFADAEEEQRRLGANSGLHIIIFDEIDAICKQRGSMAGSTGVHDTVVNQLLSKIDGVEQLNNILVIGMTNRPDLIDEALLRPGRLEVKMEIGLPDEKGRLQILHIHTARMRGHQLLSADVDIKELAVETKNFSGAELEGLVRAAQSTAMNRHIKASTKVEVDMEKAESLQVTRGDFLASLENDIKPAFGTNQEDYASYIMNGIIKWGDPVTRVLDDGELLVQQTKNSDRTPLVSVLLEGPPHSGKTALAAKIAEESNFPFIKICSPDKMIGFSETAKCQAMKKIFDDAYKSQLSCVVVDDIERLLDYVPIGPRFSNLVLQALLVLLKKAPPQGRKLLIIGTTSRKDVLQEMEMLNAFSTTIHVPNIATGEQLLEALELLGNFKDKERTTIAQQVKGKKVWIGIKKLLMLIEMSLQMDPEYRVRKFLALLREEGASPLDFD
With B2 the Total [1] was 6, the Unique [2] was 6 and the Total [3] was 2. For the same molecule, the Unique [4] was 1, the Total [5] was 1 and the Unique [6] was 1.

B3: LMNB1 (protein, UniProt P20700 2-583, looked up)
Lamin-B1: ATATPVPPRMGSRAGGPTTPLSPTRLSRLQEKEELRELNDRLAVYIDKVRSLETENSALQLQVTEREEVRGRELTGLKALYETELADARRALDDTARERAKLQIELGKCKAEHDQLLLNYAKKESDLNGAQIKLREYEAALNSKDAALATALGDKKSLEGDLEDLKDQIAQLEASLAAAKKQLADETLLKVDLENRCQSLTEDLEFRKSMYEEEINETRRKHETRLVEVDSGRQIEYEYKLAQALHEMREQHDAQVRLYKEELEQTYHAKLENARLSSEMNTSTVNSAREELMESRMRIESLSSQLSNLQKESRACLERIQELEDLLAKEKDNSRRMLTDKEREMAEIRDQMQQQLNDYEQLLDVKLALDMEISAYRKLLEGEEERLKLSPSPSSRVTVSRASSSRSVRTTRGKRKRVDVEESEASSSVSISHSASATGNVCIEEIDVDGKFIRLKNTSEQDQPMGGWEMIRKIGDTSVSYKYTSRYVLKAGQTVTIWAANAGVTASPPTDLIWKNQNSWGTGEDVKVILKNSQGEEVAQRSTVFKTTIPEEEEEEEEAAGVVVEEELFHQQGTPRASNRSC
Molecule B3 has a Total [1] of 32, a Unique [2] of 31 and a Total [5] of 8. It also gave a Unique [6] of 8.

B4: Igh-6 (protein, UniProt P01872 1-454, looked up)
Immunoglobulin heavy constant …: SQSFPNVFPLVSCESPLSDKNLVAMGCLARDFLPSTISFTWNYQNNTEVIQGIRTFPTLRTGGKYLATSQVLLSPKSILEGSDEYLVCKIHYGGKNRDLHVPIPAVAEMNPNVNVFVPPRDGFSGPAPRKSKLICEATNFTPKPITVSWLKDGKLVESGFTTDPVTIENKGSTPQTYKVISTLTISEIDWLNLNVYTCRVDHRGLTFLKNVSSTCAASPSTDILTFTIPPSFADIFLSKSANLTCLVSNLATYETLNISWASQSGEPLETKIKIMESHPNGTFSAKGVASVCVEDWNNRKEFVCTVTHRDLPSPQKKFISKPNEVHKHPPAVYLLPPAREQLNLRESATVTCLVKGFSPADISVQWLQRGQLLPQEKYVTSAPMPEPGAPGFYFTHSILTVTEEEWNSGETYTCVVGHEALPHLVTERTVDKSTGKPTLYNVSLIMSDTGGTCY
Work on B4 yielded a Total (293_HA-BRD7 bait purification, mass spectrometry, total peptides per co-purified protein) of 2, a Unique (293_HA-BRD7 bait purification, mass spectrometry, unique peptides per co-purified protein) of 2 and a Total [5] of 1. For the same molecule, the Unique [6] was 1.

B5: MED23 (protein, UniProt Q9ULK4 1-1368, looked up)
Mediator of RNA polymerase II …: METQLQSIFEEVVKTEVIEEAFPGMFMDTPEDEKTKLISCLGAFRQFWGGLSQESHEQCIQWIVKFIHGQHSPKRISFLYDCLAMAVETGLLPPRLVCESLINSDTLEWERTQLWALTFKLVRKIIGGVDYKGVRDLLKVILEKILTIPNTVSSAVVQQLLAAREVIAYILERNACLLPAYFAVTEIRKLYPEGKLPHWLLGNLVSDFVDTFRPTARINSICGRCSLLPVVNNSGAICNSWKLDPATLRFPLKGLLPYDKDLFEPQTALLRYVLEQPYSRDMVCNMLGLNKQHKQRCPVLEDQLVDLVVYAMERSETEEKFDDGGTSQLLWQHLSSQLIFFVLFQFASFPHMVLSLHQKLAGRGLIKGRDHLMWVLLQFISGSIQKNALADFLPVMKLFDLLYPEKEYIPVPDINKPQSTHAFAMTCIWIHLNRKAQNDNSKLQIPIPHSLRLHHEFLQQSLRNKSLQMNDYKIALLCNAYSTNSECFTLPMGALVETIYGNGIMRIPLPGTNCMASGSITPLPMNLLDSLTVHAKMSLIHSIATRVIKLAHAKSSVALAPALVETYSRLLVYMEIESLGIKGFISQLLPTVFKSHAWGILHTLLEMFSYRMHHIQPHYRVQLLSHLHTLAAVAQTNQNQLHLCVESTALRLITALGSSEVQPQFTRFLSDPKTVLSAESEELNRALILTLARATHVTDFFTGSDSIQGTWCKDILQTIMSFTPHNWASHTLSCFPGPLQAFFKQNNVPQESRFNLKKNVEEEYRKWKSMSNENDIITHFSMQGSPPLFLCLLWKMLLETDHINQIGYRVLERIGARALVAHVRTFADFLVYEFSTSAGGQQLNKCIEILNDMVWKYNIVTLDRLILCLAMRSHEGNEAQVCYFIIQLLLLKPNDFRNRVSDFVKENSPEHWLQNDWHTKHMNYHKKYPEKLYFEGLAEQVDPPVQIQSPYLPIYFGNVCLRFLPVFDIVIHRFLELLPVSKSLETLLDHLGGLYKFHDRPVTYLYNTLHYYEMHLRDRAFLKRKLVHAIIGSLKDNRPQGWCLSDTYLKCAMNAREENPWVPDDTYYCRLIGRLVDTMAGKSPGPFPNCDWRFNEFPNPAAHALHVTCVELMALAVSGKEVGNALLNVVLKSQPLVPRENITAWMNAIGLIITALPEPYWIVLHDRIVSVISSPSLTSETEWVGYPFRLFDFTACHQSYSEMSCSYTLALAHAVWHHSSIGQLSLIPKFLTEVLLPIVKTEFQLLYVYHLVGPFLQRFQQERTRCMIEIGVAFYDMLLNVDQCSTHLNYMDPICDFLYHMKYMFTGDSVKEQVEKIICNLKPALKLRLRFITHISKMEPAAVPPQAMNSGSPAPQSNQVPVSLPVTQ
With B5 the Total [5] was 1 and the Unique [6] was 1.

B6: ATP5A1 (protein, UniProt P25705 44-553, looked up)
ATP synthase F(1) complex …: QKTGTAEMSSILEERILGADTSVDLEETGRVLSIGDGIARVHGLRNVQAEEMVEFSSGLKGMSLNLEPDNVGVVVFGNDKLIKEGDIVKRTGAIVDVPVGEELLGRVVDALGNAIDGKGPIGSKTRRRVGLKAPGIIPRISVREPMQTGIKAVDSLVPIGRGQRELIIGDRQTGKTSIAIDTIINQKRFNDGSDEKKKLYCIYVAIGQKRSTVAQLVKRLTDADAMKYTIVVSATASDAAPLQYLAPYSGCSMGEYFRDNGKHALIIYDDLSKQAVAYRQMSLLLRRPPGREAYPGDVFYLHSRLLERAAKMNDAFGGGSLTALPVIETQAGDVSAYIPTNVISITDGQIFLETELFYKGIRPAINVGLSVSRVGSAAQTRAMKQVAGTMKLELAQYREVAAFAQFGSDLDAATQQLLSRGVRLTELLKQGQYSPMAIEEQVAVIYAGVRGYLDKLEPSKITKFENAFLSHVVSQHQALLGTIRADGKISEQSDAKLKEIVTNFLAGFEA
B6 showed a Total [1] of 32, a Unique [2] of 27 and a Total [3] of 4. It also gave a Unique [4] of 3, a Total [5] of 13 and a Unique [6] of 12.
